For 1 substance, binding results are on record in article PMC10924340.

Sequences of proteins named here, by UniProt entry; tags and fusion partners are left off.
UniProt O43255: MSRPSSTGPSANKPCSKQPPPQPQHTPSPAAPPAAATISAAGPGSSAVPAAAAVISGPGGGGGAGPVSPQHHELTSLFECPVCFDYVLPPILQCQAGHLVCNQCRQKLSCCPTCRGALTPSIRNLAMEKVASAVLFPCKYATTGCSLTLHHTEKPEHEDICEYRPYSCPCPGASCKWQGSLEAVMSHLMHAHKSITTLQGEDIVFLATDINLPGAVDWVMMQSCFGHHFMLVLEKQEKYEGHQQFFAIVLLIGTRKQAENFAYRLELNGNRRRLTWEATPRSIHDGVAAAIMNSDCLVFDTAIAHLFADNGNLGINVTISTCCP

The assay has as its target T1, Flag-LATS2 (large tumor suppressor kinase 2) (UniProt Q9NRM7).
T1 sequence: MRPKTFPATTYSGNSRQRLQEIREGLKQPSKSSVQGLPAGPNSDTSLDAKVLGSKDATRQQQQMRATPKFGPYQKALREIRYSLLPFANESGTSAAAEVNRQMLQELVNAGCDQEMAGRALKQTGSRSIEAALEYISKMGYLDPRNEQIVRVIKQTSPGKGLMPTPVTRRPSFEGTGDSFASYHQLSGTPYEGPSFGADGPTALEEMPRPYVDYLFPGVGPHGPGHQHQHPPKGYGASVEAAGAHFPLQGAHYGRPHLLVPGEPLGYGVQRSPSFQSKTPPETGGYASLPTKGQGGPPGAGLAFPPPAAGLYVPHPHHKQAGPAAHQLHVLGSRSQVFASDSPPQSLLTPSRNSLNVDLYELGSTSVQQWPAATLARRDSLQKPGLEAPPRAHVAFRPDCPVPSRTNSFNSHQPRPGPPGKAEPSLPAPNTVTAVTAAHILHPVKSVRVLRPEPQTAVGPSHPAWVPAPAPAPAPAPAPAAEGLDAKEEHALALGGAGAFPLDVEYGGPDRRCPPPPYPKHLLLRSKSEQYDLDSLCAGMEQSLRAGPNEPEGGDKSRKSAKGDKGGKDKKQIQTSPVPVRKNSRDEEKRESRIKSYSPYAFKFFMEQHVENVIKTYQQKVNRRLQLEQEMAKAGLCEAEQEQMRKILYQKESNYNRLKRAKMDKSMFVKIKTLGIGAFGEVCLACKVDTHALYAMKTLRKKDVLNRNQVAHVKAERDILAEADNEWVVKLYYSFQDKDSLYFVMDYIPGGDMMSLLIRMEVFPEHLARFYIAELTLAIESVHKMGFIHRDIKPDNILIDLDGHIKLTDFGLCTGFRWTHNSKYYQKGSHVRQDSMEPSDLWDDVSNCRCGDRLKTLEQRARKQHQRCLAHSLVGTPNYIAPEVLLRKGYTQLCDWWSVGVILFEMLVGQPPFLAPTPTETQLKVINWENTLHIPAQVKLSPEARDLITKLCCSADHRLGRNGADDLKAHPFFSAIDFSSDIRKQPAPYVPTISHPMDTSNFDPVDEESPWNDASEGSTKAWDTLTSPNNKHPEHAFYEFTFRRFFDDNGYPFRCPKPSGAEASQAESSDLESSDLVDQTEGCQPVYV
Description: affinity purification with mass spectrometry; IP-MS of LATS2: cells transfected with Flag-LATS2 and HA-Ub, lysed in IP buffer after 48 h, mixed with pre-incubated beads for 16 h, washed three times, beads analysed by MS; methods name HEK-293T, results name HK-2 cells.

No constants are given. Whether binding was seen depends on the method and setting. In cells and extracts the contact can be indirect. Here binding means that the protein was enriched with, or labelled near, the bait; the list need not be complete. Sequences can lack the tags named with a protein.

Turning to “SIAH2 (seven in absentia homolog 2), E3 ligase (from UniProt O43255 1-324) (enzyme)”, the binding entry is listed as “binds”.
